Experimental data: the supplement of paper PMC10849652
This is one part of the list.

The chains behind the UniProt entries cited, without tags or fusion partners. Where a name states a change or a piece, a line headed by the entry shows the natural chain unless it says otherwise.
UniProt Q9NUL3: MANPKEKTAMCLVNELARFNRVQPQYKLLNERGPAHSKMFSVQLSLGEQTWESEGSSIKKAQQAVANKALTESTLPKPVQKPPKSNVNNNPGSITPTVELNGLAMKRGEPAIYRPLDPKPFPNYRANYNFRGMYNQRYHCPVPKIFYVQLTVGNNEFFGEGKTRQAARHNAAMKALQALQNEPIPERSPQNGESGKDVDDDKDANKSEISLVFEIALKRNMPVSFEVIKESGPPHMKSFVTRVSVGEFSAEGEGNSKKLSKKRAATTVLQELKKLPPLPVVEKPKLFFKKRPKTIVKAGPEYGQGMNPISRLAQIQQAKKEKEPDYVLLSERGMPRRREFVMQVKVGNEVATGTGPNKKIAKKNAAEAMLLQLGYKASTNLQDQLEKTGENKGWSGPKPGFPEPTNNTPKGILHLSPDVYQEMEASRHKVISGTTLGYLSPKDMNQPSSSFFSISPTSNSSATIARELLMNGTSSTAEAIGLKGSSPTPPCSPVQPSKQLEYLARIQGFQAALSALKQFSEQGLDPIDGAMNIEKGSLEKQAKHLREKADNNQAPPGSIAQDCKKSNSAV
UniProt P78362, whole entry, looked up: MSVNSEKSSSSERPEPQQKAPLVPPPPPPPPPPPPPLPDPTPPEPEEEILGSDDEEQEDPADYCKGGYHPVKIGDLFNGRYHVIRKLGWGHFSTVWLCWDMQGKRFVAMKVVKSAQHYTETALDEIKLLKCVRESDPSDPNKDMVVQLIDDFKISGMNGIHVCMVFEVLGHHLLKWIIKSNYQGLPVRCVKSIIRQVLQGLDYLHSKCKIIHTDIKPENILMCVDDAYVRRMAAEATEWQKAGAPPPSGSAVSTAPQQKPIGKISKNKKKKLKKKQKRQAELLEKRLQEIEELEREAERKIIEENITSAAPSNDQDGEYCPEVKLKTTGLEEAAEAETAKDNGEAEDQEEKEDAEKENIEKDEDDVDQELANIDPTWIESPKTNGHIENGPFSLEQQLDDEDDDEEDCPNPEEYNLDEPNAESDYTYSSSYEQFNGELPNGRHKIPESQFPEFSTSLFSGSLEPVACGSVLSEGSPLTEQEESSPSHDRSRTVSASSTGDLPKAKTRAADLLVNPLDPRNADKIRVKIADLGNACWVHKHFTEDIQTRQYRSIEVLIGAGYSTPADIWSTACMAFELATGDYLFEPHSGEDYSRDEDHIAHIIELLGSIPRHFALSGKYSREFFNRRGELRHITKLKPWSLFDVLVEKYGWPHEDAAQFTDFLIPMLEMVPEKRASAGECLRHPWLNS
UniProt Q9C004: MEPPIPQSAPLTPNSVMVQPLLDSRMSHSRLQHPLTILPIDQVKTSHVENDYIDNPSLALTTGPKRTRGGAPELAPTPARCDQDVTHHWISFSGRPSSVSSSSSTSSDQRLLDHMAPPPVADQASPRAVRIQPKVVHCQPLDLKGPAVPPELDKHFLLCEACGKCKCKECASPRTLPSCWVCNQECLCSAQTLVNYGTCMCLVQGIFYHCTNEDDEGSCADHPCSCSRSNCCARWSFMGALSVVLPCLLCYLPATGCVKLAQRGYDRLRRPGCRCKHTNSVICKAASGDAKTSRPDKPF
UniProt Q9H040: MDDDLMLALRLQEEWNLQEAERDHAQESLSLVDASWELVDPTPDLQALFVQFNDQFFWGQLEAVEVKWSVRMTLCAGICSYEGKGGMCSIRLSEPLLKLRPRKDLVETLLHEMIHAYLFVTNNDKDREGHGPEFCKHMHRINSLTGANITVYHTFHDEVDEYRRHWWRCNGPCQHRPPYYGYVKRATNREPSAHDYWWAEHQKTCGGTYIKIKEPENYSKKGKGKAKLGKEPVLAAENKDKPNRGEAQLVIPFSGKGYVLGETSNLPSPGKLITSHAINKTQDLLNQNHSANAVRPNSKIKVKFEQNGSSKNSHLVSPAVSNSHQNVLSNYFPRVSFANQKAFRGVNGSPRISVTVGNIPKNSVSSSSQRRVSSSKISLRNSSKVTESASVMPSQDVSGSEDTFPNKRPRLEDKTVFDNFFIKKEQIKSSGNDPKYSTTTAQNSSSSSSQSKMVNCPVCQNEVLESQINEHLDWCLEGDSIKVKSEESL
UniProt Q56A73: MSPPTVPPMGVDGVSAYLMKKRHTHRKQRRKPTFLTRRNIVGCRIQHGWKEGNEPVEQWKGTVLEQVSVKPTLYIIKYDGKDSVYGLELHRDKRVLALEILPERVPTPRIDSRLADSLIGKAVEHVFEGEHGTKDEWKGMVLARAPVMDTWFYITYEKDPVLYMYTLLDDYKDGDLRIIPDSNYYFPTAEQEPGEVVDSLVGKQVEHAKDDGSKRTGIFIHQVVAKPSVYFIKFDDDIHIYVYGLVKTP
UniProt P43308: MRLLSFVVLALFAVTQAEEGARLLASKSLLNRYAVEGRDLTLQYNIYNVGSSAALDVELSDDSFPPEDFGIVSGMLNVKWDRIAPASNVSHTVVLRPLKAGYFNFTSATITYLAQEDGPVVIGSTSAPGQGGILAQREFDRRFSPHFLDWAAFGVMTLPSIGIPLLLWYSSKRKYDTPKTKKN
UniProt Q658P3: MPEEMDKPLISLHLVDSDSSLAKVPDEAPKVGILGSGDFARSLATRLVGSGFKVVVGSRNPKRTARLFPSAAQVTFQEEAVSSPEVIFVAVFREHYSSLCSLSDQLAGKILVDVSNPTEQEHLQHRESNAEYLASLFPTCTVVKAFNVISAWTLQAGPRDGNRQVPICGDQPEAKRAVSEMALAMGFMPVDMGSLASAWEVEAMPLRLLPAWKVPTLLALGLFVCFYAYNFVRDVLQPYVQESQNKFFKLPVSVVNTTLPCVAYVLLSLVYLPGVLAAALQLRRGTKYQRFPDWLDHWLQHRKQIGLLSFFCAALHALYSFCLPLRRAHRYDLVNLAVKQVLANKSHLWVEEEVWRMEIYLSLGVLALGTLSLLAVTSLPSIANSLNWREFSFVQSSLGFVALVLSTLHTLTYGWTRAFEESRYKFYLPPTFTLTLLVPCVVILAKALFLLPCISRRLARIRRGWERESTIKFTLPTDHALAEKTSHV
UniProt Q9Y2D8: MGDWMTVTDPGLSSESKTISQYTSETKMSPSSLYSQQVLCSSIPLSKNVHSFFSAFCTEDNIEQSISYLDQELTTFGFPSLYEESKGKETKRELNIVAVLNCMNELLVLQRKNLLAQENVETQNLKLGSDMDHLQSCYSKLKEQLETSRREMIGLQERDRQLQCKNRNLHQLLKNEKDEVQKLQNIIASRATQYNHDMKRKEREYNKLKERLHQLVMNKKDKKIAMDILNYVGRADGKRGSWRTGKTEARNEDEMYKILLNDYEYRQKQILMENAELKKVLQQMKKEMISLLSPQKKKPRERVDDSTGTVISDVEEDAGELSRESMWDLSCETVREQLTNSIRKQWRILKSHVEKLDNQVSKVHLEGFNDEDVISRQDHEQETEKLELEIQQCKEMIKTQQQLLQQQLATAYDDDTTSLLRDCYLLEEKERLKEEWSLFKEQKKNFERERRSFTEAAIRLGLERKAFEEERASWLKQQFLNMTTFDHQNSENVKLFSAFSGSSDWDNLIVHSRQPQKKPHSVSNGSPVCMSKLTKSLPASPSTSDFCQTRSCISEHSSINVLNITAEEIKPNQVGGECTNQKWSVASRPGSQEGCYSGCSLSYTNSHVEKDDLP
UniProt Q68D10: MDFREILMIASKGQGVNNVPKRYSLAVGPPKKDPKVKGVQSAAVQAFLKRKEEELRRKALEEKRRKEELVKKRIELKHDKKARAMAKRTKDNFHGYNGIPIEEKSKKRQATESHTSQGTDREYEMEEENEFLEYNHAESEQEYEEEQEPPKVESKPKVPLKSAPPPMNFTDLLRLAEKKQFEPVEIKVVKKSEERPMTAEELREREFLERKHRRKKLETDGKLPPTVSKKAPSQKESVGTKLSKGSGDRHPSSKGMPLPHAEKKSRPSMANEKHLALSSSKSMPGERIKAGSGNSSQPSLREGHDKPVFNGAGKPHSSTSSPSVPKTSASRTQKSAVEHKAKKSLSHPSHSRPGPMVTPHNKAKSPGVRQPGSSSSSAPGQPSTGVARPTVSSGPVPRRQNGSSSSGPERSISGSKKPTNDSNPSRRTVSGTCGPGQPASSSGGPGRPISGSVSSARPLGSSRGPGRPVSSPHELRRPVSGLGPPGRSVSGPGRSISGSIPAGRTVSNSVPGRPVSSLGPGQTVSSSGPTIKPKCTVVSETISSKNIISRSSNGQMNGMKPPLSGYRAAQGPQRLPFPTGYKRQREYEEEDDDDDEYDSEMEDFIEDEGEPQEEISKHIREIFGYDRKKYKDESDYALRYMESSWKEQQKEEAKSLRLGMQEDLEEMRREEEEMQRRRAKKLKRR
UniProt Q7Z698: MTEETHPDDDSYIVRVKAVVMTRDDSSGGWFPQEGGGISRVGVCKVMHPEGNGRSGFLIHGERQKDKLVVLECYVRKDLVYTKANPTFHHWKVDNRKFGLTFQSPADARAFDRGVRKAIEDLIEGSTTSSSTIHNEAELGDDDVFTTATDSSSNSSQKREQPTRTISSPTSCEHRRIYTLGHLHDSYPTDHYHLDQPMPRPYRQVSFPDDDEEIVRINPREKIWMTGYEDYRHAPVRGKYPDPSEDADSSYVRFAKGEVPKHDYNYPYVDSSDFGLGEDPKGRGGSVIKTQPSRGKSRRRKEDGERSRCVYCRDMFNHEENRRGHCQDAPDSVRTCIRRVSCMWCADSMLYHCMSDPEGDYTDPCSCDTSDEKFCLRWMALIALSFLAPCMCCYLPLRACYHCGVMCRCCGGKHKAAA
UniProt P35325: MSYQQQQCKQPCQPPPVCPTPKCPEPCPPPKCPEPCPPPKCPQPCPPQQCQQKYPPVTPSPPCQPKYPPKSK
UniProt Q92502: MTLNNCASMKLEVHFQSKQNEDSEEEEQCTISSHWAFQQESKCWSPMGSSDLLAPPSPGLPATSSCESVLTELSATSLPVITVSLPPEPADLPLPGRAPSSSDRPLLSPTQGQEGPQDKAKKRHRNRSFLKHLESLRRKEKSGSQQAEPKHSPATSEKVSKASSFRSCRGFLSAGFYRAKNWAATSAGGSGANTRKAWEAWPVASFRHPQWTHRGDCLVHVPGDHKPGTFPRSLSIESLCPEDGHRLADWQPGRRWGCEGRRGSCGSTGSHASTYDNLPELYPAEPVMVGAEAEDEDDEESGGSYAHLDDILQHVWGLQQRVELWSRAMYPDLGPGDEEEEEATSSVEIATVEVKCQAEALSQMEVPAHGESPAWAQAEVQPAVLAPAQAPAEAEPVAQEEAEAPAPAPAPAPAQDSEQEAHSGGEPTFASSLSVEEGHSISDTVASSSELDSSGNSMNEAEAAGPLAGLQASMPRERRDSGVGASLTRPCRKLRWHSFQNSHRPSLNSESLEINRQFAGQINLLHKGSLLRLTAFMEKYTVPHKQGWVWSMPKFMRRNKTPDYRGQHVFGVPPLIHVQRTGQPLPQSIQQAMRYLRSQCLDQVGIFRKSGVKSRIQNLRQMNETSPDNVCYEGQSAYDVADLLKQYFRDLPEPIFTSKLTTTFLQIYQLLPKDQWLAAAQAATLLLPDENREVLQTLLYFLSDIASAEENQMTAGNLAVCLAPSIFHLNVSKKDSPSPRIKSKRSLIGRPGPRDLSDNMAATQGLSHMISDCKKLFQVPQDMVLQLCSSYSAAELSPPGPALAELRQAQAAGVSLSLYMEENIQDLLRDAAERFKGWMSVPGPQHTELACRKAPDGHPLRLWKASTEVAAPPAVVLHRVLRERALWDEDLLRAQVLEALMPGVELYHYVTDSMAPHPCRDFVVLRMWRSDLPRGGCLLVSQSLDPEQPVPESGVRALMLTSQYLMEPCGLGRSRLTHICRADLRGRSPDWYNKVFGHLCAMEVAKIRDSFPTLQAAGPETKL
UniProt Q9UH36: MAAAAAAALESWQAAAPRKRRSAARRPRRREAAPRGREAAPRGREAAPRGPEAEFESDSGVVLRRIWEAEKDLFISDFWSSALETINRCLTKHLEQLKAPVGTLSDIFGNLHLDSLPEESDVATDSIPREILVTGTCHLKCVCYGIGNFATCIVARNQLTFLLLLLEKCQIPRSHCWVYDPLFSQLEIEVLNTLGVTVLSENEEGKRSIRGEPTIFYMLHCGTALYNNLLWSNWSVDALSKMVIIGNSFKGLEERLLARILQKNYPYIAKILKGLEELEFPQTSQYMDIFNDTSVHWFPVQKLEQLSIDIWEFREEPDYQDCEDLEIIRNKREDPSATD
UniProt Q8NCJ5: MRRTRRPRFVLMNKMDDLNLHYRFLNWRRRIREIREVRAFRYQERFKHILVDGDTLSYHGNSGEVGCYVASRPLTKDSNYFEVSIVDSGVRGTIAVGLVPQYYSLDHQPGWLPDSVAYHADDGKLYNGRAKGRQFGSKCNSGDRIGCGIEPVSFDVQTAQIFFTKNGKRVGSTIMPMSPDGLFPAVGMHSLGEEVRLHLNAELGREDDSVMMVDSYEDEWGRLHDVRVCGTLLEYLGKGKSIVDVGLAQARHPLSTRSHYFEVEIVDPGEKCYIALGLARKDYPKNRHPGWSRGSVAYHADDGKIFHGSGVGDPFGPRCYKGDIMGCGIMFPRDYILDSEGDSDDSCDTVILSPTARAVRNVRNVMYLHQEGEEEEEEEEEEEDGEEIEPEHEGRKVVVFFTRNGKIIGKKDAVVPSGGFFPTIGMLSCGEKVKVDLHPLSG

What was measured:
Test in all cases: log2 fold change, soluble protein after heating vs DMSO (PISA); higher = thermal stabilisation; K562 lysate, 10 uM; active = over 0.2 and 3.5 SD of the protein, either way, in both replicates (recomputed)
erlotinib = compound: C#Cc1cccc(Nc2ncnc3cc(OCCOC)c(OCCOC)cc23)c1 [erlotinib]
Procedure, shortened: (§1)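 Thermal stability, expressed as log-two fold change relative to solvent controls, is given from duplicates. Crude K562 extract in PBS pH 7.4 with 1 mM MgCl2, at 1 mg/mL protein, was treated with 10 μM compound for 30 min and heated in aliquots for 3 min across 48°C-58°C. After pooling, adjustment to 0.5% NP-40 at 4°C and centrifugation at 21,000xg for 90 min, supernatant protein was measured by TMTpro 16plex LC-MS/MS with channel sums equalised.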

[1] = compound: C/C(=N\NC(=O)C1=CC(=CC=C1)S(=O)(=O)N2CCOCC2)/C3=C(C=CC(=C3)Cl)O
Procedure, shortened: as §1

[2] = compound: C1=CC(=CC=C1C2=NC3=C(N2)C=C(C=C3)C(=O)N)OC4=CC=C(C=C4)Cl
Procedure, shortened: as §1

[3] = compound: C1=CC2=C(C=CC(=C2)/C=C\3/C(=O)NC(=NCC4=CC=CS4)S3)N=C1
Procedure, shortened: as §1

[4] = compound: C1=CC2=NC=CN=C2C=C1/C=C/3\C(=O)NC(=O)S3
Procedure, shortened: as §1

[5] = compound: C1=CC=C(C=C1)C2=NC(=C(N2)C3=CC=NC=C3)C4=CC(=C(C=C4)Cl)O
Procedure, shortened: as §1

[6] = compound: C1=CC=C2C(=C1)C3=NNC4=CC=CC(=C43)C2=O
Procedure, shortened: as §1

[7] = compound: C1CCN(C1)C(=O)NC2=CC=CC(=C2)NC3=NC=C(C(=N3)NCCC4=CN=CN4)Br
Procedure, shortened: as §1

[8] = compound: C1CN(CCC1(CC2=CC=C(C=C2)Cl)N)C3=NC=NC4=C3C=CN4
Procedure, shortened: as §1

IRAK-1-4 Inhibitor I = compound: C1COCCN1CCN2C3=CC=CC=C3N=C2NC(=O)C4=CC(=CC=C4)[N+](=O)[O-] [IRAK-1-4 Inhibitor I]
Procedure, shortened: as §1

Measured: log2 fold change

STAU2 (UniProt Q9NUL3)
inactive: erlotinib 0.072 | [1] -0.164 | [2] 0.045 | [3] -0.001 | [4] -0.052 | [5] -0.006 | [6] -0.015 | [7] 0.02 | [8] 0.051 | IRAK-1-4 Inhibitor I -0.018

SSBP2 (UniProt P81877)
inactive: erlotinib -0.076 | [1] 0.18 | [2] -0.046 | [3] -0.087 | [5] -0.075 | [6] -0.057 | [7] 0.034 | [8] 0.303 | IRAK-1-4 Inhibitor I 0.127

SSH2 (UniProt Q76I76)
inactive: erlotinib 0.026 | [1] -0.016 | [2] -0.019 | [3] -0.021 | [5] -0.072 | [6] 0.138 | [7] -0.336 | [8] -0.227 | IRAK-1-4 Inhibitor I -0.107

SRRM2 (UniProt Q9UQ35)
inactive: erlotinib -0.024 | [1] -0.108 | [2] 0.03 | [3] 0.036 | [4] -0.087 | [5] -0.005 | [6] -0.019 | [7] -0.007 | [8] -0.002 | IRAK-1-4 Inhibitor I 0

STAG2 isoform 2 (UniProt Q8N3U4)
inactive: erlotinib -0.01 | [1] -0.005 | [2] 0.024 | [3] 0.003 | [4] -0.03 | [5] 0.001 | [6] 0.007 | [7] 0.001 | [8] 0.013 | IRAK-1-4 Inhibitor I 0.001

STARD9 (UniProt Q9P2P6)
inactive: erlotinib 0 | [1] -0.26 | [2] -0.055 | [3] -0.064 | [5] 0.046 | [6] -0.033 | [7] 0.141 | [8] 0.157 | IRAK-1-4 Inhibitor I -0.004

SRPK2 isoform 2 (UniProt P78362)
inactive: erlotinib -0.053 | [1] -0.062 | [2] 0.13 | [3] -0.017 | [4] 0.001 | [5] 0 | [6] 0.045 | [7] -0.035 | [8] -0.049 | IRAK-1-4 Inhibitor I -0.001

SPRY4 (UniProt Q9C004)
inactive: erlotinib -0.012 | [1] 0.096 | [2] 0.002 | [3] -0.017 | [4] 0 | [5] 0.004 | [6] -0.021 | [7] 0.045 | [8] -0.002 | IRAK-1-4 Inhibitor I 0.038

STARD4 (UniProt Q96DR4)
inactive: [7] 0.044 | [8] 0.016

SPRTN (UniProt Q9H040)
inactive: [1] 0.4 | [3] -0.199 | [5] -0.085 | [6] -0.117 | [7] 0.155 | [8] -0.076 | IRAK-1-4 Inhibitor I -0.016

SRCIN1 (UniProt Q9C0H9)
inactive: erlotinib 0.193 | [2] 0.079 | [5] 0.002 | [7] 0.017 | [8] -0.059 | IRAK-1-4 Inhibitor I -0.039

SPIN4 (UniProt Q56A73)
inactive: [1] 0.156 | [3] -0.201 | [6] -0.05

SPTAN1 isoform 3 (UniProt Q13813)
inactive: [1] 0.094 | [3] 0.107 | [4] -0.11 | [6] 0.037 | [7] 0.059 | [8] 0.022

SSR2 (UniProt P43308)
inactive: [5] 0.06 | IRAK-1-4 Inhibitor I 0.05

STEAP3 isoform 2 (UniProt Q658P3)
inactive: [1] 0.002 | [3] 0.049 | [4] -0.098 | [5] 0.048 | [6] -0.051 | [7] -0.067 | [8] 0.081 | IRAK-1-4 Inhibitor I 0.027

STAU1 isoform 3 (UniProt O95793)
inactive: erlotinib -0.006 | [2] -0.016 | [4] -0.103

SRC isoform 2 (UniProt P12931)
inactive: erlotinib -0.073 | [2] 0.028 | [4] 0.102 | [5] -0.063 | [7] -0.018 | [8] -0.069 | IRAK-1-4 Inhibitor I 0.034

SSX2IP (UniProt Q9Y2D8)
inactive: [1] -0.07 | [3] -0.035 | [5] -0.109 | [6] 0.079 | [7] -0.056 | [8] 0.02 | IRAK-1-4 Inhibitor I 0.05

STAG1 (UniProt Q8WVM7)
inactive: erlotinib 0.017 | [2] -0.054 | [4] -0.071 | [5] -0.01 | [7] -0.173 | [8] 0.149 | IRAK-1-4 Inhibitor I 0.053

SPC24 (UniProt K7ESQ2)
inactive: [7] 0.058 | [8] 0.077

SPTY2D1 (UniProt Q68D10)
inactive: erlotinib 0.058 | [2] -0.054 | [4] 0.192 | [5] -0.096 | IRAK-1-4 Inhibitor I 0.086

SPRED2 (UniProt Q7Z698)
inactive: [4] -0.062

SSBP4 (UniProt Q9BWG4)
inactive: [1] 0.127 | [3] 0.032 | [4] 0.047 | [6] -0.176 | [7] -0.017 | [8] 0.108

SPRR2B (UniProt P35325)
inactive: erlotinib 0.019 | [2] -0.099 | [4] -0.004 | [5] 0.022 | [7] -0.244 | [8] 0.145 | IRAK-1-4 Inhibitor I 0

SPRED1 (UniProt Q7Z699)
inactive: erlotinib 0.05 | [2] -0.026 | [4] -0.043 | [5] -0.014 | [7] -0.173 | [8] 0.025 | IRAK-1-4 Inhibitor I 0.043

SPTBN1 isoform 3 (UniProt Q01082)
inactive: erlotinib 0.021 | [2] -0.049 | [5] -0.037 | [7] 0.138 | [8] -0.144 | IRAK-1-4 Inhibitor I -0.047

SQOR (UniProt Q9Y6N5)
inactive: erlotinib -0.014 | [2] -0.208 | [5] -0.036 | [7] -0.065 | [8] 0.075 | IRAK-1-4 Inhibitor I -0.017

Random excerpt: 3 entries already listed, in no set order.
SQOR (UniProt Q9Y6N5)
inactive: erlotinib -0.014 | [2] -0.208 | [5] -0.036 | [7] -0.065 | [8] 0.075 | IRAK-1-4 Inhibitor I -0.017

SPTBN1 isoform 3 (UniProt Q01082)
inactive: erlotinib 0.021 | [2] -0.049 | [5] -0.037 | [7] 0.138 | [8] -0.144 | IRAK-1-4 Inhibitor I -0.047

SPRR2B (UniProt P35325)
inactive: erlotinib 0.019 | [2] -0.099 | [4] -0.004 | [5] 0.022 | [7] -0.244 | [8] 0.145 | IRAK-1-4 Inhibitor I 0

Later entries

STARD8 isoform 2 (UniProt Q92502)
inactive: [4] -0.189 | [5] -0.014 | [7] -0.022 | [8] 0.006 | IRAK-1-4 Inhibitor I -0.011

SS18L1 (UniProt O75177)
inactive: erlotinib -0.037 | [2] 0.028 | [4] -0.171 | [5] 0.015 | IRAK-1-4 Inhibitor I -0.175

SREK1IP1 (UniProt Q8N9Q2)
inactive: erlotinib 0.005 | [2] 0.031 | [5] 0.014 | [7] 0.021 | [8] 0.068 | IRAK-1-4 Inhibitor I -0.04

SPRY2 (UniProt O43597)
inactive: erlotinib 0.012 | [2] 0.077

SRRD (UniProt Q9UH36)
inactive: [5] 0.275 | IRAK-1-4 Inhibitor I 0.246

STAG2 (UniProt Q8N3U4)
inactive: erlotinib 0.082 | [2] -0.184 | [5] 0.09 | [7] 0.023 | [8] 0.124 | IRAK-1-4 Inhibitor I 0.037

SPATA33 isoform 2 (UniProt Q96N06)
inactive: [1] -0.052 | [3] 0.031 | [4] -0.183 | [5] -0.058 | [6] 0.033 | [7] -0.031 | [8] -0.036 | IRAK-1-4 Inhibitor I 0.027

SSBP4 (UniProt U3KPY3)
inactive: [1] 0.178 | [3] 0.143 | [4] 0.181 | [6] -0.01

SRP14 (UniProt H0YLW0)
inactive: erlotinib 0.129 | [2] 0.22 | [4] -0.002 | [5] 0.12 | IRAK-1-4 Inhibitor I 0.211

SREBF1 isoform 4 (UniProt P36956)
inactive: erlotinib 0.04 | [2] 0.128 | [5] -0.059 | IRAK-1-4 Inhibitor I -0.015

SPINT1 (UniProt O43278)
inactive: erlotinib 0.007 | [2] -0.069 | [4] 0.061

SPRYD3 (UniProt Q8NCJ5)
inactive: erlotinib -0.155 | [2] -0.009 | [4] -0.109 | [5] -0.043 | IRAK-1-4 Inhibitor I 0.011

STAB1 (UniProt Q9NY15)
inactive: erlotinib 0.002 | [2] 0 | [5] 0.037 | IRAK-1-4 Inhibitor I 0.057

SPP2 (UniProt Q13103)
inactive: [4] -0.068
